This note sets out measurements from patent publication US20210154165A1.

Protein sequences, listed by entry. Tags and fused reporters are not part of them. Residues count along the entry.
UniProt P27708, residues 2-2225: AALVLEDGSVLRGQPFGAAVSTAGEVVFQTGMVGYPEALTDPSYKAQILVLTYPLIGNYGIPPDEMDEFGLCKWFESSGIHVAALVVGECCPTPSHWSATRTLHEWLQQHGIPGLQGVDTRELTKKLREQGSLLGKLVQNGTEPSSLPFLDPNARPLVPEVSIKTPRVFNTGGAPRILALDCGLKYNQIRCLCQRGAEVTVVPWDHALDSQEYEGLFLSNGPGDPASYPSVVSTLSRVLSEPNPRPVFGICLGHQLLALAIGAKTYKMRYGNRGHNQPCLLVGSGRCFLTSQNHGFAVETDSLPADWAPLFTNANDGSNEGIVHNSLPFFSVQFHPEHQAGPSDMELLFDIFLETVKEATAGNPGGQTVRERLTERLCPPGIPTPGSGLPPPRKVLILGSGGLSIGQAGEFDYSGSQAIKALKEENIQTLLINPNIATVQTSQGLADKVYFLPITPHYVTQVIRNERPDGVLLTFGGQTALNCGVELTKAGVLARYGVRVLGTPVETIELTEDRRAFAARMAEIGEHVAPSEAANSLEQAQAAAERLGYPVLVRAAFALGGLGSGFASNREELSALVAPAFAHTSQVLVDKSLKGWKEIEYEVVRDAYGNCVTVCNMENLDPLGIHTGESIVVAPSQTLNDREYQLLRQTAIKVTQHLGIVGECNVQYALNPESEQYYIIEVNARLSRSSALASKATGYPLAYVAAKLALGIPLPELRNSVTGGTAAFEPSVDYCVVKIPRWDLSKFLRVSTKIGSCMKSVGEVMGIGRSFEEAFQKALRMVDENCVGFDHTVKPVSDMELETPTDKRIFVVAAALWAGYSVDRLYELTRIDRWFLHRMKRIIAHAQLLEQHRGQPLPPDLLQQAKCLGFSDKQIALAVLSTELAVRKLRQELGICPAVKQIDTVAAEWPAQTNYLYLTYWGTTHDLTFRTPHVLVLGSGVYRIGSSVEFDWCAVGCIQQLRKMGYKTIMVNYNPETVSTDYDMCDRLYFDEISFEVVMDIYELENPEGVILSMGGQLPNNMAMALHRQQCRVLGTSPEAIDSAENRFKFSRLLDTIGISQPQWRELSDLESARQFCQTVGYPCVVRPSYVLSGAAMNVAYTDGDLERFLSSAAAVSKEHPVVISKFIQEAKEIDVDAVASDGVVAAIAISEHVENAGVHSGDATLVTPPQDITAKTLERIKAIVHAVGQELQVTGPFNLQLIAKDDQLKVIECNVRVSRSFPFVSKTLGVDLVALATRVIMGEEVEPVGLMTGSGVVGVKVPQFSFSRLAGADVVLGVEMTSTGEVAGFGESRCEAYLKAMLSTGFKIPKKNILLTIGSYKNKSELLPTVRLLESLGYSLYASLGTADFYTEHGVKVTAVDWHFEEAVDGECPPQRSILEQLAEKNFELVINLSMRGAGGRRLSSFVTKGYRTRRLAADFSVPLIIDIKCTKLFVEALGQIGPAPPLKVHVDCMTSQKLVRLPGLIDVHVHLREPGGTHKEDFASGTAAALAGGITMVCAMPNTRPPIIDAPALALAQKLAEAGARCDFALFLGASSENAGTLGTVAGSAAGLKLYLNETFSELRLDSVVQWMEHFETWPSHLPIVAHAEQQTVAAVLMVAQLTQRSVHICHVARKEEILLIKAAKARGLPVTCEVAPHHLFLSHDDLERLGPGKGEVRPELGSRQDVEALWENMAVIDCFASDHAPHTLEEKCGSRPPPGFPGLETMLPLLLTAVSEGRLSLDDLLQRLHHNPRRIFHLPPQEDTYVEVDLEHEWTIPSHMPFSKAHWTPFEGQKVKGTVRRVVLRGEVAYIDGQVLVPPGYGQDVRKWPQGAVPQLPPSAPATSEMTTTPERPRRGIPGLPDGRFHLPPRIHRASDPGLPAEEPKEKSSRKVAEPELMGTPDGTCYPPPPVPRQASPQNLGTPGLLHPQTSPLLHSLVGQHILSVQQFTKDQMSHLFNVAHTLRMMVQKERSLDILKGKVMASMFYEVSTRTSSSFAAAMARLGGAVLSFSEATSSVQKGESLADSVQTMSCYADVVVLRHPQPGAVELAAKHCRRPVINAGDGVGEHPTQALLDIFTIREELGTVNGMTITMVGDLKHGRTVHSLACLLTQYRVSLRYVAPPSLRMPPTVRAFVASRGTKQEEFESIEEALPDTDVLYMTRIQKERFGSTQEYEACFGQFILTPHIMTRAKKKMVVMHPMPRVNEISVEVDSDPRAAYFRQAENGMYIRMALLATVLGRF
UniProt O14497, residues 2-2285: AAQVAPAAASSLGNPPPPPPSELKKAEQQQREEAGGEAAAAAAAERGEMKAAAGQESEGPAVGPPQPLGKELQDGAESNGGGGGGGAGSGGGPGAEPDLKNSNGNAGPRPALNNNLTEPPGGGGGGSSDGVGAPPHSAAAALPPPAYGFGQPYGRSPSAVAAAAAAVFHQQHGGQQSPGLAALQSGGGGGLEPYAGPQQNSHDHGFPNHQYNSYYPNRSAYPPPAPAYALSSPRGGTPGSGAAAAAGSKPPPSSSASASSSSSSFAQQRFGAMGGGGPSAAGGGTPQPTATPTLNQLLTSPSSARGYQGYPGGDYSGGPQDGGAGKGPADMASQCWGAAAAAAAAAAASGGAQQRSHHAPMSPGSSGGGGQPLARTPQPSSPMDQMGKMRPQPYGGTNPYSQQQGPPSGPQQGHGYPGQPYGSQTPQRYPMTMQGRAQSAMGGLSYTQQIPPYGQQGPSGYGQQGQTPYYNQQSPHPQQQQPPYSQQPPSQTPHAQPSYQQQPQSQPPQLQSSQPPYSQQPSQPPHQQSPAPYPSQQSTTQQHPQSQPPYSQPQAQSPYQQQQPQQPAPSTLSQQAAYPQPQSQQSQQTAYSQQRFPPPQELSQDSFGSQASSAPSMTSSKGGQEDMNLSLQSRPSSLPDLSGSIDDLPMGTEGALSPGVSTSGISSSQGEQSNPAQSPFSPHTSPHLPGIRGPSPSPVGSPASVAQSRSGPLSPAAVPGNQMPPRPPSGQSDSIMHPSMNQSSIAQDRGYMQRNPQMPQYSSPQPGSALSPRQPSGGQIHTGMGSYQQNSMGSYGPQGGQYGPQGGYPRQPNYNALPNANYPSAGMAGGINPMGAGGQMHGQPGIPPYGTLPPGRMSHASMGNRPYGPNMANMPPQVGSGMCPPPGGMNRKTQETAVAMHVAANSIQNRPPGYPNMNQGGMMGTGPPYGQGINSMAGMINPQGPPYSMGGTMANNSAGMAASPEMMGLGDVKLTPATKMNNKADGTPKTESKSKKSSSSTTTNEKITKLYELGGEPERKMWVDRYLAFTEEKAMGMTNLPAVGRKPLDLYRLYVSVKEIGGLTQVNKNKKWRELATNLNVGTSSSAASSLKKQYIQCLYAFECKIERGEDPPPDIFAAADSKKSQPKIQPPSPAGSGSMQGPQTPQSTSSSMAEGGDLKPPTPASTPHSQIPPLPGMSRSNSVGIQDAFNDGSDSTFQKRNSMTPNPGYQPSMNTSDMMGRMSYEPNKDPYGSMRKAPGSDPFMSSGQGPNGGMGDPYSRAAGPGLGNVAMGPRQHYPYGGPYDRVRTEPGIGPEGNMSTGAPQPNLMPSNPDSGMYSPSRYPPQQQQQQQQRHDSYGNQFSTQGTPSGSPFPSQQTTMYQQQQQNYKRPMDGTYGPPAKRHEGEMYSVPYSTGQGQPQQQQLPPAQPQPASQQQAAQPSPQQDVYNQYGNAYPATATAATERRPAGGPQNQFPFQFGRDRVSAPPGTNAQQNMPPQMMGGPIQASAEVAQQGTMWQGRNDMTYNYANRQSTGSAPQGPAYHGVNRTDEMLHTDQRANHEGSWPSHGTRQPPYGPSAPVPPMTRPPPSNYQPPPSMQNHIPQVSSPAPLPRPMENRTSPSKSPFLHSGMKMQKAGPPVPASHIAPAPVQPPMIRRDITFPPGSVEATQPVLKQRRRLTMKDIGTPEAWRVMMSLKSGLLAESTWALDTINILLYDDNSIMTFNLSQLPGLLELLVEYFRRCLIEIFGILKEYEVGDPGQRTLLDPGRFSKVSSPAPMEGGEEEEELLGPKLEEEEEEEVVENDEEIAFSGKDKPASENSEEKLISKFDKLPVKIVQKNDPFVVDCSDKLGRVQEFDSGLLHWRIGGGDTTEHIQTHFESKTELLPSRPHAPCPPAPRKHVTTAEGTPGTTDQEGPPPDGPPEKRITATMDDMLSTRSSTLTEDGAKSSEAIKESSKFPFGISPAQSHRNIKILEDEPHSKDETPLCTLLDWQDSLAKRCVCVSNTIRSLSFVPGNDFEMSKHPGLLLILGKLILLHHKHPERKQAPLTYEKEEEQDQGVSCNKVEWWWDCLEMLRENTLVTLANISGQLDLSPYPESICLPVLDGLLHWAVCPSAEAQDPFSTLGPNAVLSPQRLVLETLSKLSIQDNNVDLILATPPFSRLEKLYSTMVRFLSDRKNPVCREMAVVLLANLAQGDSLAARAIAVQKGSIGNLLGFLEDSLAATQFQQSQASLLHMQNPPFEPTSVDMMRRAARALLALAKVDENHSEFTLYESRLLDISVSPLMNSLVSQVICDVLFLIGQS

These are yes or no findings as the source states them, for the method shown. Binding seen in cells or lysates may run through a third protein. Some results given as binding are weak or reduced against the parent protein; the word gives no strength.

In assay [1] the target is Carbamoyl-phosphate synthetase 2, Aspartate transcarbamoylase, and Dihydroorotase (CAD) (endogenous) (human) (UniProt P27708). As to the kind of experiment: co-immunoprecipitation with anti-CAD antibody from ARID1A-wildtype cell lysate, immunoblot (FIG. 1C).
Assay [2] has the same target. Briefly: reciprocal co-immunoprecipitation with anti-ARID1A and anti-CAD antibodies, immunoblot (FIG. 1B, 1C; ES2 shown, KLE data not shown).
The target in assay [3] is ARID1A (endogenous, ARID1A-wildtype cancer cell lysate) (UniProt O14497). Briefly: co-immunoprecipitation with anti-ARID1A antibody from ARID1A-wildtype cell lysate, immunoblot (FIG. 1B).
The target is the same in assay [4]. As to the kind of experiment: immunoprecipitation of the endogenous ARID1A complex (KLE cells; similar in ES2), SDS-PAGE band, LC-MS/MS (FIG. 1A, FIG. 6).

For the substance “ARID1A (endogenous, ARID1A-wildtype cancer cell lysate) (from UniProt O14497 2-2285)”, the binding result in assay [1] and in assay [2] was “binds” each time.
“Carbamoyl-phosphate synthetase 2, Aspartate transcarbamoylase, and Dihydroorotase (CAD) (endogenous) (from UniProt P27708 2-2225) (enzyme)”: the binding entry in assay [3] and in assay [4] was “binds” throughout.
